{"sequences": {"note": "Chains of the proteins cited; added tags and fusions are not shown. Lines headed by an entry give the natural chain unless they say otherwise; changes in a name come on top.", "UniProt Q9NSD9": "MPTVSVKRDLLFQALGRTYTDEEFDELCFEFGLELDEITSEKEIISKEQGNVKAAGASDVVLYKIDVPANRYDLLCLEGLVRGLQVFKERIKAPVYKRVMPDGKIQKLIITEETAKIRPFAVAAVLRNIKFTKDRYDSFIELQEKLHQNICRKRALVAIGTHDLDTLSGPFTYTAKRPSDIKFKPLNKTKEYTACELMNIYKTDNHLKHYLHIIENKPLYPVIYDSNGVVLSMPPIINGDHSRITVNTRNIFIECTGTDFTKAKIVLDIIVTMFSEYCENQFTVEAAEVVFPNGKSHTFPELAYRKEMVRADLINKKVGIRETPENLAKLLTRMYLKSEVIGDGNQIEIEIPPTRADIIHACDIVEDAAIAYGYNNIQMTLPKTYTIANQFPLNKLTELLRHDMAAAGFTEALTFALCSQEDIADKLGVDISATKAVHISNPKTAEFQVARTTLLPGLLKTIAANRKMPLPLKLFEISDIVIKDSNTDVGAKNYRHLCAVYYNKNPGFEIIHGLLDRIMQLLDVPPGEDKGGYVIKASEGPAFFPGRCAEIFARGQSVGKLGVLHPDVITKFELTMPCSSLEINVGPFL", "UniProt Q9HAV4": "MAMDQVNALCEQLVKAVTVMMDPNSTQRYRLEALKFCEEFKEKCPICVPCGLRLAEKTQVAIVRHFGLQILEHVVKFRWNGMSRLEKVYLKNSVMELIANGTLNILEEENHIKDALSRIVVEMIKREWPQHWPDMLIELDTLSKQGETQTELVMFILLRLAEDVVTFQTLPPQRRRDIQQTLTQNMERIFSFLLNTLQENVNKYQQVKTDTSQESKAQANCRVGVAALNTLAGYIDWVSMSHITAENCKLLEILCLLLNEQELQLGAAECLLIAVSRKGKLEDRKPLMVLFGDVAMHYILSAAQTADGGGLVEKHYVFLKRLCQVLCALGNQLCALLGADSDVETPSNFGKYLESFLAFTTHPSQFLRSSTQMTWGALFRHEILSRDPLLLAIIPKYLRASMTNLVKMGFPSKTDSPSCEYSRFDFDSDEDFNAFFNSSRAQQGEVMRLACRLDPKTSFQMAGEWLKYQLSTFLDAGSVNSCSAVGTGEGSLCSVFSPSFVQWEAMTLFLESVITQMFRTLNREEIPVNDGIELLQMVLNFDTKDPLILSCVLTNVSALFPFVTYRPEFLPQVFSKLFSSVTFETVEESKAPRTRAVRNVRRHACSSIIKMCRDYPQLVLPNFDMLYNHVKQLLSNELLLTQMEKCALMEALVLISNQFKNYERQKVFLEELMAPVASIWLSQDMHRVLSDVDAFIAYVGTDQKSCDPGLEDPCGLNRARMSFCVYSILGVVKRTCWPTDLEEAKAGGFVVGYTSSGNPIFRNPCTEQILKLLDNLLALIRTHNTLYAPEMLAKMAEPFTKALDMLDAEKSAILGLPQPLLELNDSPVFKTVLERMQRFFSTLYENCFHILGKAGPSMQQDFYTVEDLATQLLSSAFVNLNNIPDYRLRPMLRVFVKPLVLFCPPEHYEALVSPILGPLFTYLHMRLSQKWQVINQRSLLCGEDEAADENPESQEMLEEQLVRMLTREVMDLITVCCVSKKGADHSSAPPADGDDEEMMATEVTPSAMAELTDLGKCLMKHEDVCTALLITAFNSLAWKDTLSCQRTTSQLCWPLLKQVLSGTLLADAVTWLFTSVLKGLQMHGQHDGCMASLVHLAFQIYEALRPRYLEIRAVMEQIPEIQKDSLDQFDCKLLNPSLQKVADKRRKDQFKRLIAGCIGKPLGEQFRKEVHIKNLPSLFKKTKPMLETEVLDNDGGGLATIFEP", "UniProt Q9H9L3": "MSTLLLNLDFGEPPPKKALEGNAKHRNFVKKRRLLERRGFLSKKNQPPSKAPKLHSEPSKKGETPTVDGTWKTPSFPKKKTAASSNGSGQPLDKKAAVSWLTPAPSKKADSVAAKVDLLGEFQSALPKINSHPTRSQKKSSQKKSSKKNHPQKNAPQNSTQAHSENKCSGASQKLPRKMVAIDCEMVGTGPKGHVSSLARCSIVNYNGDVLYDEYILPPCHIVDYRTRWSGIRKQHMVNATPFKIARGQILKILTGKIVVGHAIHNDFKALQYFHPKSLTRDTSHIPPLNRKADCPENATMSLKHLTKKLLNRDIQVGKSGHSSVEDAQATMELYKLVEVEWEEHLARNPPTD", "UniProt Q9NS86": "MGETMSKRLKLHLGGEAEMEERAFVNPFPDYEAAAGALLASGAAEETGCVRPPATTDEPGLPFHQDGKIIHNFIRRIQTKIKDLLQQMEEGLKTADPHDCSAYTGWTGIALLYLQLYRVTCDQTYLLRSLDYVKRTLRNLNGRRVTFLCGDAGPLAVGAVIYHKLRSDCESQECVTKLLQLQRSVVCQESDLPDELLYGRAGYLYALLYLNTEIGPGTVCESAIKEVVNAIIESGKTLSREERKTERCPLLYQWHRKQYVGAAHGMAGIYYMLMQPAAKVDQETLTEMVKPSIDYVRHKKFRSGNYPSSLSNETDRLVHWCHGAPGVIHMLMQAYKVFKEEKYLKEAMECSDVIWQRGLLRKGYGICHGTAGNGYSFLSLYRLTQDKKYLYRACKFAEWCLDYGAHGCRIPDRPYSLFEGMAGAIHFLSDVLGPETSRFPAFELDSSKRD", "UniProt Q9NPI1": "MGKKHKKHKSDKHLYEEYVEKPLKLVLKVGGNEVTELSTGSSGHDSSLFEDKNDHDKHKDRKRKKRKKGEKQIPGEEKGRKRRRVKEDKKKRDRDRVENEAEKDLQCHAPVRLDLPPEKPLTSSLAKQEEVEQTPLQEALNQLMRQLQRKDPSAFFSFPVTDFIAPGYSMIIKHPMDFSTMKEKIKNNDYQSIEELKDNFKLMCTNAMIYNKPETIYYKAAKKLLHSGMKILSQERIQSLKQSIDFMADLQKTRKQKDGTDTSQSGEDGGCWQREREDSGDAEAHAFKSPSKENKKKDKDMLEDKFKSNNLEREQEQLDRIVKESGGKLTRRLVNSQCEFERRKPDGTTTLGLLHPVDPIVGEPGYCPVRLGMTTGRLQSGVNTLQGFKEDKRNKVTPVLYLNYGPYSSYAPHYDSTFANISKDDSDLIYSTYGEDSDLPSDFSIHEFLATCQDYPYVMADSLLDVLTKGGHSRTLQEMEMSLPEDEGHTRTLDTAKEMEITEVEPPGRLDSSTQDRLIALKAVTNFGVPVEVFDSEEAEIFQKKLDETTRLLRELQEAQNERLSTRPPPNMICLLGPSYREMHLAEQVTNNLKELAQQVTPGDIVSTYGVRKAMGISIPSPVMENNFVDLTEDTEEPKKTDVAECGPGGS", "UniProt Q9NUP1": "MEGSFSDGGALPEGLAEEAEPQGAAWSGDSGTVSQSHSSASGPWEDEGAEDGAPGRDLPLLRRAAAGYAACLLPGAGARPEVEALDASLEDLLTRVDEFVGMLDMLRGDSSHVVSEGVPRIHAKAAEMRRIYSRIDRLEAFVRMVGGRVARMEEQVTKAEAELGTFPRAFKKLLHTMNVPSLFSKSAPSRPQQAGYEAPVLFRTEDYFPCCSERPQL", "UniProt Q9H3P7": "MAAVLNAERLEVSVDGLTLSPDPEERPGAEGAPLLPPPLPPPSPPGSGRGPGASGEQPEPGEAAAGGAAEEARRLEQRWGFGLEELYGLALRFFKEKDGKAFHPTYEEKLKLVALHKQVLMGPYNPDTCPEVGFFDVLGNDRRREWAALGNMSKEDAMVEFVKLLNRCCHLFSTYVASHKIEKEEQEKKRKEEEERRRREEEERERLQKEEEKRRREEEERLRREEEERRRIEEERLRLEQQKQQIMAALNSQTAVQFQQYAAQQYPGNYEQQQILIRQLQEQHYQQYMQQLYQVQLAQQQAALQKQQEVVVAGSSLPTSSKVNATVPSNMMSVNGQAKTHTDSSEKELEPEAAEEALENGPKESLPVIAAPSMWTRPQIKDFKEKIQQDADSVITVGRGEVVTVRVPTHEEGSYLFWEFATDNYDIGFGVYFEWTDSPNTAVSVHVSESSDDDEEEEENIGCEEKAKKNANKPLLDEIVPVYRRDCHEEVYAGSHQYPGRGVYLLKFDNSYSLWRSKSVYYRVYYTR", "UniProt Q9NRX1": "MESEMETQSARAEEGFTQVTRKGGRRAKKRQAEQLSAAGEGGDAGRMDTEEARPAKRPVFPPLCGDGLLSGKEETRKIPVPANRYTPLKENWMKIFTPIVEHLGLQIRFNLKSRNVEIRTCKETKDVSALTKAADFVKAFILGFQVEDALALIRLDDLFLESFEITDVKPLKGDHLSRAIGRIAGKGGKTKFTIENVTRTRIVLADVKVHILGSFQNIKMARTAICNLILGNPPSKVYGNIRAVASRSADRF", "UniProt Q9NPH2": "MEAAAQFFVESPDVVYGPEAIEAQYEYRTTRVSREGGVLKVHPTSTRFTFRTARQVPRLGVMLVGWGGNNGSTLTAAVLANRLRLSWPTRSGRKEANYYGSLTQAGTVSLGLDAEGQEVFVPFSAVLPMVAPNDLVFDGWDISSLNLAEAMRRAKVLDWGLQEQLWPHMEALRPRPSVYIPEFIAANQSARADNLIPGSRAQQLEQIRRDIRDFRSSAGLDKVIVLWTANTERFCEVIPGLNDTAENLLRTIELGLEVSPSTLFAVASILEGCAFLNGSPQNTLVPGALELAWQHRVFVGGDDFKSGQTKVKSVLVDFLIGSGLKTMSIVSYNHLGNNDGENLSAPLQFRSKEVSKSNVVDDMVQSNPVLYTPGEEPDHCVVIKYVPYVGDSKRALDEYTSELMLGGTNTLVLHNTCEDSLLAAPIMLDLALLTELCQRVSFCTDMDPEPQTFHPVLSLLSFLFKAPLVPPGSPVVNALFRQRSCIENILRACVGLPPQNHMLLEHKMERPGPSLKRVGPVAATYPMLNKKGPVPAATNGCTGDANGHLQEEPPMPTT", "UniProt Q9NT62, whole entry, looked up": "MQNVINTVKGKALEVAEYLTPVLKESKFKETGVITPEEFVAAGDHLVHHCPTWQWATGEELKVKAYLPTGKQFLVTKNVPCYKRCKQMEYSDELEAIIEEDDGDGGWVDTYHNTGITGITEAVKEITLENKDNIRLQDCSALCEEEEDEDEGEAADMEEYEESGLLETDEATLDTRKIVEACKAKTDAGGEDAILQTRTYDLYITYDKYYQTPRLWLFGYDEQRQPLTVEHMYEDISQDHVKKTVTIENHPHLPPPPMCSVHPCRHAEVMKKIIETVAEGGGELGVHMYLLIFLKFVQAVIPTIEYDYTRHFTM", "UniProt Q9NRP4": "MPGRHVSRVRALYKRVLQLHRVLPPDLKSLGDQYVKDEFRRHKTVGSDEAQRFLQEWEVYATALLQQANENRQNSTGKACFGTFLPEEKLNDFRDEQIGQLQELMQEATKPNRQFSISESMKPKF", "UniProt Q9H9B1": "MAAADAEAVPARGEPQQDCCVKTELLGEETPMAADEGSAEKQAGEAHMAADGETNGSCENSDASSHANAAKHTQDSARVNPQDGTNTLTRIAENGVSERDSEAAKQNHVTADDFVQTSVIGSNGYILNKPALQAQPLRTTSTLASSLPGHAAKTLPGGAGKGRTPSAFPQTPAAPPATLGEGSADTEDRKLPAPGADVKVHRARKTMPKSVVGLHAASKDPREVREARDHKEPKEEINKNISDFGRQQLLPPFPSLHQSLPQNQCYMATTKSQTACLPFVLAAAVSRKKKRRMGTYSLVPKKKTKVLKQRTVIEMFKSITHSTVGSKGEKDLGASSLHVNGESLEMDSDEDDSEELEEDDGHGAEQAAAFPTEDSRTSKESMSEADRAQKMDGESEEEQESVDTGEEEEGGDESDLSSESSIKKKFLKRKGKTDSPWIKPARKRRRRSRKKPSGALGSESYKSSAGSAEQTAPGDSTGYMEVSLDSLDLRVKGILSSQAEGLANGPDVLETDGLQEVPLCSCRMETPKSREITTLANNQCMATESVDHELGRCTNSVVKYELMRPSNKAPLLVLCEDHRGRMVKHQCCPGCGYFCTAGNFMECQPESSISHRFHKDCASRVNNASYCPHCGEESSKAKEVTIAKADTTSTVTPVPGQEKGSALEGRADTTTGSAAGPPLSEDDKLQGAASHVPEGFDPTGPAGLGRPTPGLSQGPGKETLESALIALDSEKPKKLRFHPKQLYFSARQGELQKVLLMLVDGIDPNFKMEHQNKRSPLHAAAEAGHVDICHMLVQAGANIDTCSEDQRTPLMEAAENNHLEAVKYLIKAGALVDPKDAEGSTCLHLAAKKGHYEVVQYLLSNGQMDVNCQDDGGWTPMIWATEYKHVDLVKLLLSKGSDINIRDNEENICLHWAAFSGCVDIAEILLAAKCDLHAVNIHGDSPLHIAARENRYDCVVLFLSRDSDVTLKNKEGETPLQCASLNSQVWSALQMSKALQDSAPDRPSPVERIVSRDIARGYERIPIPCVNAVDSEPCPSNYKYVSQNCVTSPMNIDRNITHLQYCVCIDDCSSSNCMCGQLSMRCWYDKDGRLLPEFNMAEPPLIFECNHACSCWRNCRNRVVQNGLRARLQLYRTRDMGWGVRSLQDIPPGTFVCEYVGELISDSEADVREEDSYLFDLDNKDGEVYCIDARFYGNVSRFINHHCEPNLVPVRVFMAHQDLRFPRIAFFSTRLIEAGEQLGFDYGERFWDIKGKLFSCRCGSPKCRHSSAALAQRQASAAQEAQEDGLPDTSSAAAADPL"}, "source": "the supplement of paper PMC11006884", "note": "This is a selection; strong and weak results do not stand in their true shares."}
{"compound": "COC(=O)C#Cc1ccccc1 [methyl 3-phenylpropiolate]", "experiment": "log2 ratio of iodoacetamide-alkyne labeling of the cysteine site, DMSO over compound (competition); higher = stronger covalent engagement of the cysteine by the compound, active = 1 or more", "conditions": "500 µM; treatment time 1 h; system: HEK293T cell lysate", "outline": "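For each cysteine, the log2 competition ratio is mean control-channel reporter intensity over mean compound-channel reporter intensity. HEK293T lysate (2 mg/mL) was exposed to vehicle or electrophile (500 µM, 1 h, ambient temperature), labelled with iodoacetamide alkyne (1 h), clicked to sCIP-TMT reagents, digested overnight with trypsin at 37 °C, streptavidin-enriched and analysed by Orbitrap Eclipse LC-MS/MS with FAIMS and FragPipe. Cysteines quantified in only one of three replicates, each with duplicate channels, were excluded.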"}
{"target": "RAB18 C155 (UniProt Q9NP72)", "log2 ratio of iodoacetamide-alkyne labeling": "inactive: 0.211"}
{"target": "FARSB C548 (UniProt Q9NSD9)", "log2 ratio of iodoacetamide-alkyne labeling": "inactive: -0.00808"}
{"target": "XPO5 C10 (UniProt Q9HAV4)", "log2 ratio of iodoacetamide-alkyne labeling": "inactive: -0.0199"}
{"target": "NOL6 C1034 (UniProt Q9H6R4)", "log2 ratio of iodoacetamide-alkyne labeling": "active: 1.81"}
{"target": "XPO5 C1157 (UniProt Q9HAV4)", "log2 ratio of iodoacetamide-alkyne labeling": "inactive: 0.173"}
{"target": "BAZ1A C893 (UniProt Q9NRL2)", "log2 ratio of iodoacetamide-alkyne labeling": "inactive: 0.87"}
{"target": "ISG20L2 C220 (UniProt Q9H9L3)", "log2 ratio of iodoacetamide-alkyne labeling": "inactive: 0.104"}
{"target": "SARS2 C64 (UniProt Q9NP81)", "log2 ratio of iodoacetamide-alkyne labeling": "inactive: 0.315"}
{"target": "OSBPL3 C203 (UniProt Q9H4L5)", "log2 ratio of iodoacetamide-alkyne labeling": "inactive: 0.76"}
{"target": "ZDBF2 C628 (UniProt Q9HCK1)", "log2 ratio of iodoacetamide-alkyne labeling": "inactive: 0.47"}
{"target": "LANCL2 C49 (UniProt Q9NS86)", "log2 ratio of iodoacetamide-alkyne labeling": "inactive: -0.064"}
{"target": "UNC45A C384 (UniProt Q9H3U1)", "log2 ratio of iodoacetamide-alkyne labeling": "inactive: 0.0438"}
{"target": "MDN1 C4345 (UniProt Q9NU22)", "log2 ratio of iodoacetamide-alkyne labeling": "inactive: 0.187"}
{"target": "BRD7 C271 (UniProt Q9NPI1)", "log2 ratio of iodoacetamide-alkyne labeling": "inactive: 0.755"}
{"target": "UniProt Q9H993_C398", "log2 ratio of iodoacetamide-alkyne labeling": "inactive: -0.156"}
{"target": "UBN1 C711 (UniProt Q9NPG3)", "log2 ratio of iodoacetamide-alkyne labeling": "inactive: 0.7"}
{"target": "UniProt Q9NUP1_C210", "log2 ratio of iodoacetamide-alkyne labeling": "inactive: 0.821"}
{"target": "ACBD3 C129 (UniProt Q9H3P7)", "log2 ratio of iodoacetamide-alkyne labeling": "inactive: 0.643"}
{"target": "FARSB C195 (UniProt Q9NSD9)", "log2 ratio of iodoacetamide-alkyne labeling": "inactive: 0.621"}
{"target": "PNO1 C64 (UniProt Q9NRX1)", "log2 ratio of iodoacetamide-alkyne labeling": "inactive: 0.367"}
{"target": "PPA2 C302 (UniProt Q9H2U2)", "log2 ratio of iodoacetamide-alkyne labeling": "inactive: -0.114"}
{"target": "XAB2 C225 (UniProt Q9HCS7)", "log2 ratio of iodoacetamide-alkyne labeling": "inactive: 0.447"}
{"target": "ISYNA1 C380 (UniProt Q9NPH2)", "log2 ratio of iodoacetamide-alkyne labeling": "inactive: 0.537"}
{"target": "ATG3 C50 (UniProt Q9NT62)", "log2 ratio of iodoacetamide-alkyne labeling": "inactive: -0.109"}
{"target": "MRPS30 C316 (UniProt Q9NP92)", "log2 ratio of iodoacetamide-alkyne labeling": "inactive: -0.0799"}
{"target": "UniProt Q9NRP4_C80", "log2 ratio of iodoacetamide-alkyne labeling": "inactive: 0.483"}
{"target": "MRPL47 C87 (UniProt Q9HD33)", "log2 ratio of iodoacetamide-alkyne labeling": "inactive: -0.039"}
{"target": "MBNL1 C27 (UniProt Q9NR56)", "log2 ratio of iodoacetamide-alkyne labeling": "inactive: 0.203"}
{"target": "BIRC6 C613 (UniProt Q9NR09)", "log2 ratio of iodoacetamide-alkyne labeling": "inactive: 0.352"}
{"target": "SLC25A22 C25 (UniProt Q9H936)", "log2 ratio of iodoacetamide-alkyne labeling": "inactive: -0.0128"}
{"target": "EHMT1 C265 (UniProt Q9H9B1)", "log2 ratio of iodoacetamide-alkyne labeling": "inactive: 0.518"}
{"target": "CHD8 C2378 (UniProt Q9HCK8)", "log2 ratio of iodoacetamide-alkyne labeling": "inactive: 0.191"}
{"target": "UCK1 C9 (UniProt Q9HA47)", "log2 ratio of iodoacetamide-alkyne labeling": "inactive: 0.165"}
{"target": "UNC45A C745 (UniProt Q9H3U1)", "log2 ratio of iodoacetamide-alkyne labeling": "inactive: 0.172"}
{"target": "RAVER2 C631 (UniProt Q9HCJ3)", "log2 ratio of iodoacetamide-alkyne labeling": "inactive: 0.475"}
{"target": "BCAS3 C836 (UniProt Q9H6U6)", "log2 ratio of iodoacetamide-alkyne labeling": "inactive: 0.157"}
{"target": "SNX15 C192 (UniProt Q9NRS6)", "log2 ratio of iodoacetamide-alkyne labeling": "inactive: -0.395"}
